Values from PubChem BioAssay AID1224826 (NIAID, 2016)

- Assay: 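Genes that change LPS-induced Tnf promoter activity in mouse macrophages when knocked down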 (primary screen)
- Cells: RAW264.7 G9 macrophages from mouse bearing reporters for p65 (GFP) and the Tnf promoter (mCherry)
- Reagents: siRNA pool against mouse genes, 100 nM
- Duration: 16 h of LPS stimulation, after 2 days of siRNA transfection
- Challenge: bacterial lipopolysaccharide (Salmonella minnesota R595), 10 ng/ml
- Read-out: 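Imaged Tnf reporter mCherry in nuclei, minus background, normalised per plate to the median and expressed as robust z-scores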
- Scale: Tnf reporter robust z-score: higher = stronger Tnf promoter reporter signal after LPS
- Call rule: 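Called active when robust z-score is at most -1.3, matching the median of the Tlr4 knock-down control, or over 3; control wells and wells with under 50 cells never active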
- Calls: active = Tnf reporter clearly lowered or raised; inactive = no clear change in Tnf reporter
Here is an unselected part of about 17,000 reagents tested. About 1,110 of all reagents (6.6%) count as active. 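Active means lowered or raised reporter signal; replicate intensities are raw and not normalised per plate.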 Entries without a mark were called inactive. The numbers tell different reagents against one gene apart. Not all columns of the deposit are shown. Reagent sequences are not shown.

{"target": "Hoxa13 (homeobox A13)", "reagent no.": 1, "Tnf reporter robust z-score": -0.02, "fewer than 50 cells in well": "enough cells in well"}
{"target": "Kifc5b (kinesin family member C5B)", "reagent no.": 1, "Tnf reporter robust z-score": -0.11, "fewer than 50 cells in well": "enough cells in well"}
{"target": "Kifc5b (kinesin family member C5B)", "reagent no.": 2, "Tnf reporter robust z-score": 0.23, "fewer than 50 cells in well": "enough cells in well"}
{"target": "Vmn2r81 (vomeronasal 2, receptor 81)", "reagent no.": 1, "Tnf reporter robust z-score": -0.86, "fewer than 50 cells in well": "enough cells in well"}
{"target": "Upk3a (uroplakin 3A)", "reagent no.": 1, "Tnf reporter robust z-score": 0.73, "fewer than 50 cells in well": "enough cells in well"}
{"target": "Vsig4 (V-set and immunoglobulin domain containing 4)", "reagent no.": 1, "Tnf reporter robust z-score": -0.06, "fewer than 50 cells in well": "enough cells in well"}
{"target": "Neurod2 (neurogenic differentiation 2)", "reagent no.": 1, "Tnf reporter robust z-score": 0.06, "fewer than 50 cells in well": "enough cells in well"}
{"target": "Vmn1r67 (vomeronasal 1 receptor 67)", "reagent no.": 1, "Tnf reporter robust z-score": 0.31, "fewer than 50 cells in well": "enough cells in well"}
{"target": "Ubr2 (ubiquitin protein ligase E3 component n-recognin 2)", "reagent no.": 1, "Tnf reporter robust z-score": 0.66, "fewer than 50 cells in well": "enough cells in well"}
{"target": "Tmem80 (transmembrane protein 80)", "reagent no.": 1, "Tnf reporter robust z-score": 1.18, "fewer than 50 cells in well": "enough cells in well"}
{"target": "Sgcb (sarcoglycan, beta (dystrophin-associated glycoprotein))", "reagent no.": 1, "Tnf reporter robust z-score": 0.25, "fewer than 50 cells in well": "enough cells in well"}
{"target": "Nrl (neural retina leucine zipper gene)", "reagent no.": 1, "Tnf reporter robust z-score": 0.47, "fewer than 50 cells in well": "enough cells in well"}
{"target": "Ddc (dopa decarboxylase)", "reagent no.": 1, "Tnf reporter robust z-score": -0.31, "fewer than 50 cells in well": "enough cells in well"}
{"target": "Lamc1 (laminin, gamma 1)", "reagent no.": 1, "Tnf reporter robust z-score": -0.5, "fewer than 50 cells in well": "enough cells in well"}
{"target": "Vmn1r23 (vomeronasal 1 receptor 23)", "reagent no.": 1, "Tnf reporter robust z-score": 0.86, "fewer than 50 cells in well": "enough cells in well"}
{"target": "Agfg2 (ArfGAP with FG repeats 2)", "reagent no.": 1, "Tnf reporter robust z-score": -0.36, "fewer than 50 cells in well": "enough cells in well"}
{"target": "Spag9 (sperm associated antigen 9)", "reagent no.": 1, "Tnf reporter robust z-score": -0.02, "fewer than 50 cells in well": "enough cells in well"}
{"target": "Tbx22 (T-box 22)", "reagent no.": 1, "Tnf reporter robust z-score": -0.14, "fewer than 50 cells in well": "enough cells in well"}
{"target": "Ripk4 (receptor-interacting serine-threonine kinase 4)", "reagent no.": 1, "Tnf reporter robust z-score": -1.25, "fewer than 50 cells in well": "enough cells in well"}
{"target": "Nifk (nucleolar protein interacting with the FHA domain of MKI67)", "reagent no.": 1, "Tnf reporter robust z-score": 1.15, "fewer than 50 cells in well": "enough cells in well"}
{"target": "Dock5 (dedicator of cytokinesis 5)", "reagent no.": 1, "Tnf reporter robust z-score": -0.76, "fewer than 50 cells in well": "enough cells in well"}

In a second layout: results already given.
Neurod2 (neurogenic differentiation 2)
- Tnf reporter robust z-score: 0.06
- fewer than 50 cells in well: enough cells in well

Vmn1r67 (vomeronasal 1 receptor 67)
- Tnf reporter robust z-score: 0.31
- fewer than 50 cells in well: enough cells in well

Ubr2 (ubiquitin protein ligase E3 component n-recognin 2)
- Tnf reporter robust z-score: 0.66
- fewer than 50 cells in well: enough cells in well
